This passage reports binding results from paper PMC5291280.

The chains behind the UniProt entries cited, without tags or fusion partners.
UniProt Q8ND56: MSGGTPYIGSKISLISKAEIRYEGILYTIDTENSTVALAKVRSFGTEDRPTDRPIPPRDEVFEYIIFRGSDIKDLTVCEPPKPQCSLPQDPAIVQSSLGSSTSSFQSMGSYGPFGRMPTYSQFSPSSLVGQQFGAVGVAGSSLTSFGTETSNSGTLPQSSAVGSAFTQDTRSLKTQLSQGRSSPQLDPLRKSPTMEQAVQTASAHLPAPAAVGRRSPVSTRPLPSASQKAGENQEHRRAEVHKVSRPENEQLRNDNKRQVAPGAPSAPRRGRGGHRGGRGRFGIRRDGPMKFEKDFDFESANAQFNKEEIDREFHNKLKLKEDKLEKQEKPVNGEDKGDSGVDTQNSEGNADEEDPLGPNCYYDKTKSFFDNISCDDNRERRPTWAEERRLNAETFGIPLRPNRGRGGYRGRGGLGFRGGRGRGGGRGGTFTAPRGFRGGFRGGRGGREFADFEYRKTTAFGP
UniProt P06730: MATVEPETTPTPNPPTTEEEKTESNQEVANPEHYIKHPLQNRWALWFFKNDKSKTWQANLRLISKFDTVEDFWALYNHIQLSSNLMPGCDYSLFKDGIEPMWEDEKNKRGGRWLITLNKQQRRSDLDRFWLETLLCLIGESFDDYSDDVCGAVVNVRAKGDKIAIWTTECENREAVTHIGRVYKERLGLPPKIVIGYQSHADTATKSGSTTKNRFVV
UniProt O60573: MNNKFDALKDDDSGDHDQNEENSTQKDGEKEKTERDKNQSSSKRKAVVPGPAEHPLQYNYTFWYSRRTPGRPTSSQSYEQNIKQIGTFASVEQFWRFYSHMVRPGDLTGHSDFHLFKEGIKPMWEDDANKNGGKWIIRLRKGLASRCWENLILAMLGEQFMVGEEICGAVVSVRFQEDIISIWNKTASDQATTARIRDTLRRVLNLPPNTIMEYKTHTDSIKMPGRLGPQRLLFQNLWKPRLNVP

The target in one experiment is T1, FLAG-4E-TΔIII (human) (UniProt Q9NRA8).
T1 sequence: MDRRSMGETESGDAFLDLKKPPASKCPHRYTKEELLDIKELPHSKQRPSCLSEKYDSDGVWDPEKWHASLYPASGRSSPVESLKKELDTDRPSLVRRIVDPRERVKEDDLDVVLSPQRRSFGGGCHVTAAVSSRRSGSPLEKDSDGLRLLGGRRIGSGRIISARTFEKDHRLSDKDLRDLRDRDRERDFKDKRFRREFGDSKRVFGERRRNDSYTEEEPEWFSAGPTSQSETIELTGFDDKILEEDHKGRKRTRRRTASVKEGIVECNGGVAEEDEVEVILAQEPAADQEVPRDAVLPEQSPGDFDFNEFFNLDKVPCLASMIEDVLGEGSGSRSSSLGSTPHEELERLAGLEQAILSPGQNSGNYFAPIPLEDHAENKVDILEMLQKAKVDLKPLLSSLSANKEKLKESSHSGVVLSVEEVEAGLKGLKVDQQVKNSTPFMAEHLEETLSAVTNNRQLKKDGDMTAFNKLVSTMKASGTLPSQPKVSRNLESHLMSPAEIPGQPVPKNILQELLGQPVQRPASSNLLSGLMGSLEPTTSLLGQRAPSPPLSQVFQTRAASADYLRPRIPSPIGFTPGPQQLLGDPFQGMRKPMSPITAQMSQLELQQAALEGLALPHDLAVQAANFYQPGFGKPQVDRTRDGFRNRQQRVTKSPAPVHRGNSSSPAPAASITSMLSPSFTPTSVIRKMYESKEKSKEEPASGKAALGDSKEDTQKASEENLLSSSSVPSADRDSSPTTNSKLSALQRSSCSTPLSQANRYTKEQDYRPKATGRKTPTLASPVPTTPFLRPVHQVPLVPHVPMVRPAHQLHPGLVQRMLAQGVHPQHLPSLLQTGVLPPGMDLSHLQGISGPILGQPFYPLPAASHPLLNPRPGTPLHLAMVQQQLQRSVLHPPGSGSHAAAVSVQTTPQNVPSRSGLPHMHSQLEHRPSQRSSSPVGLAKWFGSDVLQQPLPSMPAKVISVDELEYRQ
Briefly: co-IP; anti-FLAG M2 beads on lysates of transfected HEK293T cells, eluted with SDS loading buffer, western blot; lysates with or without RNase A (40 μg/ml); in some panels cells also given siRNA against β-globin, DDX6, UNR or unrip, or co-transfected with HA-DDX6.

The next experiment addresses T2, FLAG-4E-TΔCHD (human) (UniProt Q9NRA8).
T2 sequence: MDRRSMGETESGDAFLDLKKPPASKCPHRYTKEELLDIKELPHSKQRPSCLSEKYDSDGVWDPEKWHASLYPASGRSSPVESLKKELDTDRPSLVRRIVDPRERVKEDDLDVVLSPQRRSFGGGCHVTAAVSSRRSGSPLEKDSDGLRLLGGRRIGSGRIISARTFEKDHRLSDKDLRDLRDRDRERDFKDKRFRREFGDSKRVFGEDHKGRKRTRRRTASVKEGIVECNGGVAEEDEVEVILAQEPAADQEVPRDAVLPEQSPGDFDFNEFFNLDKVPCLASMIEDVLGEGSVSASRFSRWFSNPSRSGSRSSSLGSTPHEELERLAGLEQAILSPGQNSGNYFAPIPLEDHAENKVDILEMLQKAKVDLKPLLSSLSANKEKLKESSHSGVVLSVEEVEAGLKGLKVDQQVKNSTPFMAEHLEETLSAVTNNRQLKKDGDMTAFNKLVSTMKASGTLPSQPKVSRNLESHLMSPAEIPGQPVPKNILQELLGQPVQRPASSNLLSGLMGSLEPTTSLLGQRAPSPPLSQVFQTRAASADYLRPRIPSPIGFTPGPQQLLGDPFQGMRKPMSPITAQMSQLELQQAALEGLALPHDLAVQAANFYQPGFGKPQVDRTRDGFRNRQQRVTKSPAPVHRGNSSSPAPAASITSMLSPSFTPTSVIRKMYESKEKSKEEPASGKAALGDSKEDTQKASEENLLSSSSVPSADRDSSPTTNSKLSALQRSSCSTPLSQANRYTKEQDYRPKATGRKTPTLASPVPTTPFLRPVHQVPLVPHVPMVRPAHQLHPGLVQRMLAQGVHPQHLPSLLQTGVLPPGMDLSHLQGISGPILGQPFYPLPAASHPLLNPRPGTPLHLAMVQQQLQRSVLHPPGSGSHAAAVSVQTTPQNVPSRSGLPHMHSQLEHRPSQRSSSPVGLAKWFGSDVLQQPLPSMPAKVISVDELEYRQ
The experiment is described as above.

Results are given in words; binding and its absence hold for the method and conditions named. In cells and extracts the contact can be indirect. Some binding calls cover weakened binding; strength is not graded here. Tags and fused reporters may be left off the sequences shown.

As to “LSM14A, endogenous (from UniProt Q8ND56 1-463)”, the binding result in the experiment with FLAG-4E-TΔIII (human) and with FLAG-4E-TΔCHD (human) was “binds” in each case.
With “eIF4E1, endogenous (from UniProt P06730 1-217)”, the binding entry with FLAG-4E-TΔIII (human) and with FLAG-4E-TΔCHD (human) was “binds” each time.
On to “eIF4E2, endogenous (from UniProt O60573 1-245)”, for which the binding result with FLAG-4E-TΔIII (human) and with FLAG-4E-TΔCHD (human) was “binds” in each case.

B1: PAT1B, endogenous (protein, UniProt Q86TB9 1-770)
chain: MFRYESLEDCPLDEDEDAFQGLGEEDEEIDQFNDDTFGSGAVDDDWQEAHERLAELEEKLPVAVNEQTGNGERDEMDLLGDHEENLAERLSKMVIENELEDPAIMRAVQTRPVLQPQPGSLNSSIWDGSEVLRRIRGPLLAQEMPTVSVLEYALPQRPPQGPEDDRDLSERALPRRSTSPIIGSPPVRAVPIGTPPKQMAVPSFTQQILCPKPVHVRPPMPPRYPAPYGERMSPNQLCSVPNSSLLGHPFPPSVPPVLSPLQRAQLLGGAQLQPGRMSPSQFARVPGFVGSPLAAMNPKLLQGRVGQMLPPAPGFRAFFSAPPSATPPPQQHPPGPGPHLQNLRSQAPMFRPDTTHLHPQHRRLLHQRQQQNRSQHRNLNGAGDRGSHRSSHQDHLRKDPYANLMLQREKDWVSKIQMMQLQSTDPYLDDFYYQNYFEKLEKLSAAEEIQGDGPKKERTKLITPQVAKLEHAYKPVQFEGSLGKLTVSSVNNPRKMIDAVVTSRSEDDETKEKQVRDKRRKTLVIIEKTYSLLLDVEDYERRYLLSLEEERPALMDDRKHKICSMYDNLRGKLPGQERPSDDHFVQIMCIRKGKRMVARILPFLSTEQAADILMTTARNLPFLIKKDAQDEVLPCLLSPFSLLLYHLPSVSITSLLRQLMNLPQSAATPALSNPHLTAVLQNKFGLSLLLILLSRGEDLQSSDPATESTQNNQWTEVMFMATRELLRIPQAALAKPISIPTNLVSLFSRYVDRQKLNLLETKLQLVQGIR
Take B1: the binding result in the experiment with FLAG-4E-TΔIII (human) and in the experiment with FLAG-4E-TΔCHD (human) was “binds” throughout.

B2: CNOT4, endogenous (protein, UniProt O95628 1-575)
chain: MSRSPDAKEDPVECPLCMEPLEIDDINFFPCTCGYQICRFCWHRIRTDENGLCPACRKPYPEDPAVYKPLSQEELQRIKNEKKQKQNERKQKISENRKHLASVRVVQKNLVFVVGLSQRLADPEVLKRPEYFGKFGKIHKVVINNSTSYAGSQGPSASAYVTYIRSEDALRAIQCVNNVVVDGRTLKASLGTTKYCSYFLKNMQCPKPDCMYLHELGDEAASFTKEEMQAGKHQEYEQKLLQELYKLNPNFLQLSTGSVDKNKNKVTPLQRYDTPIDKPSDSLSIGNGDNSQQISNSDTPSPPPGLSKSNPVIPISSSNHSARSPFEGAVTESQSLFSDNFRHPNPIPSGLPPFPSSPQTSSDWPTAPEPQSLFTSETIPVSSSTDWQAAFGFGSSKQPEDDLGFDPFDVTRKALADLIEKELSVQDQPSLSPTSLQNSSSHTTTAKGPGSGFLHPAAATNANSLNSTFSVLPQRFPQFQQHRAVYNSFSFPGQAARYPWMAFPRNSIMHLNHTANPTSNSNFLDLNLPPQHNTGLGGIPVAGEEEVKVSTMPLSTSSHSLQQGQQPTSLHTTVA
As to B2, the binding result with FLAG-4E-TΔIII (human) and in the experiment with FLAG-4E-TΔCHD (human) was “binds” each time.
